At least one peptide structure holds a part that was inferred or is arguable (an end, a ring closure or a residue).
Tested on: microorganisms with acquired resistance
Conditions: peptide + Tobramycin; S. maltophilia SMA031

Q: With CC[C@H](C)[C@H](NC(=O)CNC(=O)[C@@H](NC(=O)[C@H](CCCCN)NC(=O)[C@H](CCCCN)NC(=O)[C@H](Cc1ccccc1)NC(=O)[C@H](CC(C)C)NC(=O)[C@H](CCCCN)NC(=O)[C@H](Cc1c[nH]c2ccccc12)NC(=O)[C@@H](N)CCCCN)[C@@H](C)CC)C(=O)NCC(=O)N[C@@H](C)C(=O)N[C@H](C(=O)N[C@@H](CC(C)C)C(=O)N[C@@H](CCCCN)C(=O)N[C@H](C(=O)N[C@@H](CC(C)C)C(=O)N[C@H](C(=O)N[C@H](C(=O)NCC(=O)N[C@@H](CC(C)C)C(=O)N1CCC[C@H]1C(=O)N[C@@H](C)C(=O)N[C@@H](CC(C)C)C(=O)N[C@H](C(=O)N[C@@H](CO)C(=O)O)[C@@H](C)CC)[C@@H](C)O)[C@@H](C)O)C(C)C)C(C)C [MBI 27, KWKLFKKIGIGAVLKVLTTGLPALIS] as the compound, how does the FIC read?
A: The FIC was 1.53.
